{"source": "paper PMC5636194", "about": "(Journal of nanomedicine & nanotechnology, 2017)", "assay_type_in_all_cases": "cell-based", "key": {"T98G cells [1]": {"test_system": "T98G cells", "test": "Cell viability (calcein AM)", "conditions": "10 µM, 24, 72 and 144 hours", "procedure": "(§1) U87 and T98G cells were seeded at 750 cells/well in 100 µL DMEM high glucose with pyruvate (10% FBS and 1% Pen/Strep) in a black, 96-well flat-bottomed plate, and allowed to attached overnight. […] The next morning, the plates were washed with 200 µL/well 1X PBS, which was removed and replaced with 95 µL calcein AM reagent at 1:1000 dilution in 1X PBS."}, "U87 cells [2]": {"test_system": "U87 cells", "test": "Cell viability (calcein AM)", "conditions": "10 µM, 24, 72 and 144 hours", "procedure": "as §1"}, "T98G cells [3]": {"test_system": "T98G cells", "test": "Liquid colony formation assay (4 weeks)", "conditions": "10 µM", "procedure": "(§2) Cells were seeded into 6-well culture plates (Falcon) at a concentration of 50 cells/well in 1 mL DMEM high glucose with pyruvate (Gibco), 10% FBS, and 1% Pen/Strep. Treatments were added to each well to obtain a pre-determined final concentration in 2 mL/well total volume. Plates were incubated for 4 weeks undisturbed, and only carefully received a media change at week 3 with or without drug treatments if colonies were not visible. Following completion of the 4-week incubation period, colonies were stained as previously described. […] Stained colonies were counted, with the number and size documented."}, "U87 cells [4]": {"test_system": "U87 cells", "test": "Liquid colony formation assay (4 weeks)", "conditions": "regardless of treatment concentration", "procedure": "as §2"}}, "data": [{"smiles": "CCCCCCCCC=CCCCCCCCC(=O)[O-].CN(C)c1ccc2nc3ccc(=[N+](C)C)cc-3sc2c1", "note": "[MBOS, methylene blue oleate salt]", "values": [{"measurement": "Cell viability over time course", "setting": "T98G cells [1]", "value": "no significant reduction in T98G cell viability until 144 hours"}, {"measurement": "Cell viability over time course", "setting": "U87 cells [2]", "value": "reduction in cell survival not seen until 144 hours"}, {"measurement": "Average colony size compared to control", "setting": "T98G cells [3]", "value": "significantly increased"}, {"measurement": "Colony size and number of colonies compared to untreated cells", "setting": "U87 cells [4]", "value": "little to no difference"}]}]}
